The name of at least one read-out is uncertain.
Key:
[1] = system: Pseudomonas aeruginosa (deposit number: NBRC106052 strain) biofilm; assay: Evaluation of biofilm-removing effect (crystal violet staining of pre-formed biofilm); format: cell-based; details: single substance at Table 2 concentration (alcohols 1,000 ppm, DBNPA 9.75 ppm), less than MIC, pH 7.0, 3.5 hours contact with 17 hour biofilm
Source text: In the present invention, the biofilm-removing effect is an action of removing biofilms formed by bacteria. Examples of methods for evaluating an effect of removing substances to be evaluated include a method for comparing the amount of biofilm formed after bringing the substance to be evaluated into contact with a biofilm formed through culturing bacteria for a certain period of time with the amount of biofilm (control) formed after the elapse of a certain period of time without the biofilm being brought into contact with the substance to be evaluated. In this case, when the amount of biofilm formed is smaller than that of the control, it can be determined that the substance to be evaluated has a biofilm-removing effect.
(i) A triptic soy broth (TBS, Bacto: manufactured by Difco Laboratories) medium having a final concentration of glucose of 1% is used for Pseudomonas aeruginosa (deposit number: NBRC106052 strain) which is a representative strain of biofilm-forming bacteria to prepare a preculture solution under the condition of 120 rpm.
(ii) The preculture solution of which the turbidity (OD) is adjusted to 0.1 is diluted with a TSB medium so that the final concentration is 0.000005% (v/v), and 2 mL of the diluent is dispensed into a 12-well plate. Here, the following OD (turbidity) is a value which is measured with a spectrophotometer (iMark Microplate Reader: manufactured by Bio-Rad Laboratories, Inc.) at a wavelength of 630 nm in which distilled water is used as a blank. […]
(v) A substance to be evaluated is added to a medium at an appropriate concentration less than the MIC of the target substance, and the pH of the medium is adjusted to 7.0 with hydrochloric acid or sodium hydroxide. […]
(vi) Each well is shaken at the same temperature as that of the preculture for 3.5 hours at 130 rpm, the biofilm is brought into contact with the medium containing the substance to be evaluated, and then, the medium in each well is removed, and each well is rinsed twice with distilled water. […]
(viii) 2 mL of ethanol is added to each well and allowed to stand for 1 hour to elute crystal violet from the stained biofilm, and the absorbance is measured. Here, the following absorbance is a value which is measured with a spectrophotometer (iMark Microplate Reader: manufactured by Bio-Rad Laboratories, Inc.) at a wavelength of 595 nm in which distilled water is used as a blank.
(ix) Regarding the absorbance of the negative control and each substance to be evaluated, absorbances measured for 4 wells are taken as an average value, and the removal rate of each biofilm is calculated from the following calculation equation.
Biofilm removal rate (%)={1-(absorbance of substance to be evaluated/absorbance of negative control)}×100 […]

[2] = system: Pseudomonas aeruginosa (deposit number: NBRC106052 strain) biofilm; assay: Evaluation of biofilm formation-inhibiting effect (crystal violet staining); format: cell-based; details: single substance at Table 2 concentration (alcohols 1,000 ppm, DBNPA 9.75 ppm), less than MIC, pH 7.0, culture 37° C. 6 hours

Row | SMILES | Removal effect (removal rate %) [1] | Formation-inhibiting effect (formation inhibition rate %) [2]
1 | CC(O)c1ccccc1 (centres unmarked) [Example 2, 1-Phenylethanol] | 42% | 43%
2 | OCCOc1ccccc1 [Example 4, 2-Phenoxyethanol] | 44% | 56%
3 | OCCCOc1ccccc1 [Example 5, 3-Phenoxy-1-propanol] | 44% | 43%
4 | OCC(O)COc1ccccc1 (centres unmarked) [compound 3, 3-Phenoxy-1,2-propanediol] | 10% | 13%
